This is one part of the list.
target: T1, OsSMF1 (Oryza sativa, UniProt Q6ZLB0 1-436); experiment: protein-binding microarray (RPBM); PBS, 2% BSA, 51.3 ng/ul salmon testes DNA, 50 uM zinc acetate, 200 nM TF, 25 C, 1 h; high values mean tight binding; conditions: protein: recombinant; tags: N-terminal polyhistidine and DsRed monomer fusion (pET32a); chain copies: 2; label: CyDye5-dUTP incorporated in the synthesized complementary strand; 3' TTTTT single-stranded linker to array surface; dsDNA, one strand shown
T1 sequence: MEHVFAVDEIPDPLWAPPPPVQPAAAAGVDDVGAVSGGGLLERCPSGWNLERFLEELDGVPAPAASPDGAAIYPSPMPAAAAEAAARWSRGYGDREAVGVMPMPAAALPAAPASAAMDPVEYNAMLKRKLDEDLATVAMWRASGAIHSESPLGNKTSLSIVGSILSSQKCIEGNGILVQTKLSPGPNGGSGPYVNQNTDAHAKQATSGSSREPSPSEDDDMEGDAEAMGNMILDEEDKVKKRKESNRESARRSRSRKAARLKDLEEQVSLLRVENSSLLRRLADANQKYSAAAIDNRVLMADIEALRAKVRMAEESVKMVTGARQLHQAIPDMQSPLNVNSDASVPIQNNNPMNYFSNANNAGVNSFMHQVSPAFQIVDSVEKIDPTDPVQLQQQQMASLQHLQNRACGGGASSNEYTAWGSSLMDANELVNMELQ
Method in brief: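 Transcription factors were made in E. coli BL21-CodonPlus as N-terminal fusions to a polyhistidine tag and DsRed, then purified on Ni–NTA. After primer extension with Cy5-dUTP and blocking with 2% BSA, a custom Agilent array was exposed for 1 h at 25 °C to 200 nM protein in PBS, 2% BSA, salmon testes DNA and 50 µM zinc acetate. Washed arrays were scanned on an Axon 4000B, and the binding signal is per-feature fluorescence intensity in arbitrary units.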

Question: For “CGACGCCGAAAGACGCCGTCGTCATCCGTCCAAGGAATTGCGGAGTCACCTAGTGCAG”, which binding signal is on record?
Answer: 5810 fluorescence intensity (a.u.)

Question: For “GGTCAAGCATCTGATATGACATCCAAAATTTTCTTTTCGCCGGAGTCACCTAGTGCAG”, which binding signal is on record?
Answer: 3280 fluorescence intensity (a.u.)

Question: With “TGACATGTAAATTAACATAGAGATATTTCTTAATTTGACACGGAGTCACCTAGTGCAG” as the sequence, how does the binding signal read?
Answer: 35100 fluorescence intensity (a.u.)

Question: For “CGCGCGCGCCGCCGCCGGTCGGTAACGACGGCGACGATGACGGAGTCACCTAGTGCAG”, which binding signal is on record?
Answer: 65500 fluorescence intensity (a.u.)

Question: “AGAAGAACGATGGTGATTCATGGAGAAAGAGCAGTGATGGCGGAGTCACCTAGTGCAG” was tested. Which binding signal did it give?
Answer: 3230 fluorescence intensity (a.u.)

Question: For “TTAAACCGACGGACGATGACTCAGTCACACAAGAACCAGTCGGAGTCACCTAGTGCAG”, which binding signal is on record?
Answer: 5490 fluorescence intensity (a.u.)

Question: How did the binding signal turn out when “AAAGAGGCAATATTTTGACGACACATTTGCCCCGTGTACCCGGAGTCACCTAGTGCAG” was run?
Answer: 4280 fluorescence intensity (a.u.)

Question: For “CTTAACAATTTGAGAGTTATCATGATTTATATTTCCAAGGCGGAGTCACCTAGTGCAG”, which binding signal is on record?
Answer: 26600 fluorescence intensity (a.u.)

Question: “AAATAGGGACGCTGTGATGCGTCGGCACAACACAAAACGACGGAGTCACCTAGTGCAG” was tested. Which binding signal did it give?
Answer: 3280 fluorescence intensity (a.u.)

Question: Which binding signal does the source give for “TTGTAAATTGTTACCCATCTATCATCCAATCAAATTTCAGCGGAGTCACCTAGTGCAG” here?
Answer: 4220 fluorescence intensity (a.u.)

Question: How did the binding signal turn out when “GTAGGGGAATTTCTATACCTGCTTTGCGGAACTCGATCCACGGAGTCACCTAGTGCAG” was run?
Answer: 18500 fluorescence intensity (a.u.)

Question: How did the binding signal turn out when “GTTTCAACGTCACGTCACGCGTCACGGCTCAAGCATCAGCCGGAGTCACCTAGTGCAG” was run?
Answer: 10500 fluorescence intensity (a.u.)

Question: Which binding signal does the source give for “TGGAGGCGACGTGGCGGTCGTTGACTCGTTGTGTGCTCGACGGAGTCACCTAGTGCAG” here?
Answer: 7090 fluorescence intensity (a.u.)

Question: With “TGGACGATGATCGACGCGGCGTGGTGCACGAGCGCCTCCGCGGAGTCACCTAGTGCAG” as the sequence, how does the binding signal read?
Answer: 3260 fluorescence intensity (a.u.)

Question: How did the binding signal turn out when “CGGATGGCAATGTCGCACCAAGAAATACGCGCACGAGCTGCGGAGTCACCTAGTGCAG” was run?
Answer: 3480 fluorescence intensity (a.u.)

Question: “GAGGGGCGCGGGCGCCGAGCTCCATCTGGCGAGCAGGGTACGGAGTCACCTAGTGCAG” was tested. Which binding signal did it give?
Answer: 42200 fluorescence intensity (a.u.)

Question: For “CCCCTGTCAATACAACCAGCTGCACGCCCATTCGTCTCAACGGAGTCACCTAGTGCAG”, which binding signal is on record?
Answer: 3550 fluorescence intensity (a.u.)

Question: Which binding signal does the source give for “GGCGGCGAGGCCGCACCTCCTCGCCGCCACGTCGCCGGCGCGGAGTCACCTAGTGCAG” here?
Answer: 7990 fluorescence intensity (a.u.)

Question: Which binding signal does the source give for “GCTTCACTTCCCTAGCAGCGTGATAAACTGACGTCATGTGCGGAGTCACCTAGTGCAG” here?
Answer: 11700 fluorescence intensity (a.u.)

Question: How did the binding signal turn out when “CTAGAACAATGTAAGATGCAGACTTGTAAATACATCCGTGCGGAGTCACCTAGTGCAG” was run?
Answer: 4340 fluorescence intensity (a.u.)

Question: How did the binding signal turn out when “TCCACCTCGGCGTCCACGTTGGACTGGACCTCCACATCGGCGGAGTCACCTAGTGCAG” was run?
Answer: 7590 fluorescence intensity (a.u.)

Question: Which binding signal does the source give for “TTATAAACTCGTCTCGCGATTTACTGACAAATTATGTAATCGGAGTCACCTAGTGCAG” here?
Answer: 4300 fluorescence intensity (a.u.)

Question: For “AGCCGTAGCCCTCATTGGTACGTGGCCTCGTGGATCCACTCGGAGTCACCTAGTGCAG”, which binding signal is on record?
Answer: 5650 fluorescence intensity (a.u.)

Question: How did the binding signal turn out when “GCCACTTTTCTCCACGTGTGCTCCCGTCCACACGTCATCCCGGAGTCACCTAGTGCAG” was run?
Answer: 12400 fluorescence intensity (a.u.)

Question: “GTGTGTGTGTGTGTTTCAAGCTGCTGCGTCGCTGTCGTGGCGGAGTCACCTAGTGCAG” was tested. Which binding signal did it give?
Answer: 5210 fluorescence intensity (a.u.)

Question: “TTTCCTTTCACGAGCCGCGCGGCGCACAGAGCGTTTGCTGCGGAGTCACCTAGTGCAG” was tested. Which binding signal did it give?
Answer: 3280 fluorescence intensity (a.u.)

Question: Which binding signal does the source give for “AAGCTGCCCTTCTTCGCCTCGAACGCCTCCACGTCGTCCTCGGAGTCACCTAGTGCAG” here?
Answer: 8620 fluorescence intensity (a.u.)

Question: “ATTTGTCTTATAAGCAGTATTTTATTATCCAACCTGTGAGCGGAGTCACCTAGTGCAG” was tested. Which binding signal did it give?
Answer: 3300 fluorescence intensity (a.u.)

Question: Which binding signal does the source give for “ATTGGCTGTTTCGTTTGCTATGTCATTGGCTTTCCCGCGCCGGAGTCACCTAGTGCAG” here?
Answer: 3500 fluorescence intensity (a.u.)

Question: With “AACATAAATGTGATTCATCACCTCTAACTATTTCAGTTAGCGGAGTCACCTAGTGCAG” as the sequence, how does the binding signal read?
Answer: 3200 fluorescence intensity (a.u.)

Question: For “CTTTTAGCAAAGGCTAATGAACTAATCTGGTTAAACTATACGGAGTCACCTAGTGCAG”, which binding signal is on record?
Answer: 3310 fluorescence intensity (a.u.)

Question: How did the binding signal turn out when “ATCTTGCACAACTGTTGGATTCAAGTCTGAGATGAAAACACGGAGTCACCTAGTGCAG” was run?
Answer: 3380 fluorescence intensity (a.u.)

Question: How did the binding signal turn out when “CGGTGGCGCGGACGTGGCCGAGCTCTGCGCCGTGGCGGCGCGGAGTCACCTAGTGCAG” was run?
Answer: 7330 fluorescence intensity (a.u.)

Question: Which binding signal does the source give for “AGGAGATGGAGGCCTGACGTGGCCTGGCTCCCCAAGGCCCCGGAGTCACCTAGTGCAG” here?
Answer: 23800 fluorescence intensity (a.u.)

Question: “CAACAAACAAACACGTACACAACCTTCTCAATTCTCACTACGGAGTCACCTAGTGCAG” was tested. Which binding signal did it give?
Answer: 3180 fluorescence intensity (a.u.)

Question: How did the binding signal turn out when “ATATAAAATTAACGTGGATAATCACATTTTCCTACACATTCGGAGTCACCTAGTGCAG” was run?
Answer: 3490 fluorescence intensity (a.u.)

Question: Which binding signal does the source give for “CTAGTTTAGCCAATTAAGCTAATCAGCCCCTCGAAACCTCCGGAGTCACCTAGTGCAG” here?
Answer: 3200 fluorescence intensity (a.u.)

Question: For “GTTCCGACTATCGATGACGTAGGTACGTAAACCATCATCACGGAGTCACCTAGTGCAG”, which binding signal is on record?
Answer: 6690 fluorescence intensity (a.u.)

Question: For “GATAGGCAAAGCTTCGAACTTTGGGCTGAAAACAAATTTTCGGAGTCACCTAGTGCAG”, which binding signal is on record?
Answer: 28400 fluorescence intensity (a.u.)

Question: Which binding signal does the source give for “TTACTAGTACATTTAATATATTTATTTAATGTATTTGTATCGGAGTCACCTAGTGCAG” here?
Answer: 3140 fluorescence intensity (a.u.)

Question: For “ATGGTCTCTCTGGATCCATCCCCTCCTCTTCTTCCAATATCGGAGTCACCTAGTGCAG”, which binding signal is on record?
Answer: 3670 fluorescence intensity (a.u.)

Question: With “GCCATGGAAACCAGTTAAACGTATTAATTTAACATATGCTCGGAGTCACCTAGTGCAG” as the sequence, how does the binding signal read?
Answer: 4270 fluorescence intensity (a.u.)

From publication PMC7819943, “Rice protein-binding microarrays: a tool to detect cis-acting elements near promoter regions in rice”
